Results published in publication doi:10.1101/266833.
Read-outs that look alike come from different tables or passages of the source. No constants are given. Whether binding was seen depends on the method and setting. In cells and extracts the contact can be indirect. Here binding means that the protein was enriched with, or labelled near, the bait; the list need not be complete. For part of these data: A no says only that the protein was not detected with the bait.

Key:
Test in all cases: affinity purification with mass spectrometry
Nmd4-TAP (S. cerevisiae) [1] = target: T1, Nmd4-TAP (S. cerevisiae) (UniProt Q12129)
T1 sequence: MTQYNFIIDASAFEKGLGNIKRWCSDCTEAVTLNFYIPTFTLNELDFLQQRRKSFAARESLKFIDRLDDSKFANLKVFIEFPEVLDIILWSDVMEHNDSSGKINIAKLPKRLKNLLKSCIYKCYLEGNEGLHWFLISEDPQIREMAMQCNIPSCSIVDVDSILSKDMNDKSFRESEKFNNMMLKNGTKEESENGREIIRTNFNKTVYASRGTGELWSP

[2] = target: T2, Hrr25-TAP (S. cerevisiae) (UniProt P29295)
T2 sequence: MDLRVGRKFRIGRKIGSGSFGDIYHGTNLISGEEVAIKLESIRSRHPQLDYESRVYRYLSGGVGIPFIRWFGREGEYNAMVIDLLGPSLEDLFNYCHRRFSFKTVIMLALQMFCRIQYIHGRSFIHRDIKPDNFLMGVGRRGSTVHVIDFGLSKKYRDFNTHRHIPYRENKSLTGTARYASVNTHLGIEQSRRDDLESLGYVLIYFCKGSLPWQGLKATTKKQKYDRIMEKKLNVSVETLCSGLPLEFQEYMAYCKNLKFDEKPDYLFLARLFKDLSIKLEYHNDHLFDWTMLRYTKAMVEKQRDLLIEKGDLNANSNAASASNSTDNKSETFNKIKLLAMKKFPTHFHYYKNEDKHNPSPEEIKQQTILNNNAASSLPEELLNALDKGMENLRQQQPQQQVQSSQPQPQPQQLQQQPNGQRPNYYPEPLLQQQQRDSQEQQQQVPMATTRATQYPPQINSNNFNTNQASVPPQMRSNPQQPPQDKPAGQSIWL

Dcp1-TAP (S. cerevisiae) [3] = target: T3, Dcp1-TAP (S. cerevisiae) (UniProt Q12517)
T3 sequence: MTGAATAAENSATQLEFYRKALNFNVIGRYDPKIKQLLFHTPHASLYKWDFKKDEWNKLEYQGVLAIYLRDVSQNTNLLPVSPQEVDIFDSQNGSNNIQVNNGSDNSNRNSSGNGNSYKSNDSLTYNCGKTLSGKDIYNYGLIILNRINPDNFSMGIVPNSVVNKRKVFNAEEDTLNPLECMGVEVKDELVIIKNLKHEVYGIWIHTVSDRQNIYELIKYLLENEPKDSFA

Ebs1-TAP (S. cerevisiae) [4] = target: T4, Ebs1-TAP (S. cerevisiae) (UniProt Q03466)
T4 sequence: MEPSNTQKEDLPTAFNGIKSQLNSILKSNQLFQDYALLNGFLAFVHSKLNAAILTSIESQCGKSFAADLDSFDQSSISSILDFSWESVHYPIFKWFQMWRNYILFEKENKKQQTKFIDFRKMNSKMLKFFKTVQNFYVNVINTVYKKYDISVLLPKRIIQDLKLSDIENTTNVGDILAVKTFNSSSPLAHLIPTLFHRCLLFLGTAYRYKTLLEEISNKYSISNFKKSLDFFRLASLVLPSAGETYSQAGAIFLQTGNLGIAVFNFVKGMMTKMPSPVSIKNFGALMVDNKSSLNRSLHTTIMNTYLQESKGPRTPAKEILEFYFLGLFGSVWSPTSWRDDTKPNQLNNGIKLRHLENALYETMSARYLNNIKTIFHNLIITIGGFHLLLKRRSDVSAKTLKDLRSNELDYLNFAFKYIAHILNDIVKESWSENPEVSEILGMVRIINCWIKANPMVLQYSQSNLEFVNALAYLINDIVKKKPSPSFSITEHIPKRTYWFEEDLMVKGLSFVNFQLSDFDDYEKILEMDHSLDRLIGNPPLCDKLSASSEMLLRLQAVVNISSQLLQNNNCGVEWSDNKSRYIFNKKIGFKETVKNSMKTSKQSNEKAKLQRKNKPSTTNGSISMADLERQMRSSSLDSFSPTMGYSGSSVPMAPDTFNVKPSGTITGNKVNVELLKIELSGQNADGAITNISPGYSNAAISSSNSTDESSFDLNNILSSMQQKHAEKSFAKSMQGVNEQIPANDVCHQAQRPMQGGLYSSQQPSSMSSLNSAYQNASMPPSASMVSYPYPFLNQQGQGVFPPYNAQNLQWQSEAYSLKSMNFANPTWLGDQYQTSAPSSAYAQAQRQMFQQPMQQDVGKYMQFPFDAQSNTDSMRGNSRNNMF

Nmd4-TAP (S. cerevisiae) [5] = target: T1, Nmd4-TAP (S. cerevisiae); remark: listed apart in the source
[6] = target: T2, Hrr25-TAP (S. cerevisiae); remark: listed apart in the source
Dcp1-TAP (S. cerevisiae) [7] = target: T3, Dcp1-TAP (S. cerevisiae); remark: listed apart in the source
Ebs1-TAP (S. cerevisiae) [8] = target: T4, Ebs1-TAP (S. cerevisiae); remark: listed apart in the source
[9] = target: T5, Upf1-TAP (S. cerevisiae), P30771; details: remark: other sources report otherwise
T5 chain: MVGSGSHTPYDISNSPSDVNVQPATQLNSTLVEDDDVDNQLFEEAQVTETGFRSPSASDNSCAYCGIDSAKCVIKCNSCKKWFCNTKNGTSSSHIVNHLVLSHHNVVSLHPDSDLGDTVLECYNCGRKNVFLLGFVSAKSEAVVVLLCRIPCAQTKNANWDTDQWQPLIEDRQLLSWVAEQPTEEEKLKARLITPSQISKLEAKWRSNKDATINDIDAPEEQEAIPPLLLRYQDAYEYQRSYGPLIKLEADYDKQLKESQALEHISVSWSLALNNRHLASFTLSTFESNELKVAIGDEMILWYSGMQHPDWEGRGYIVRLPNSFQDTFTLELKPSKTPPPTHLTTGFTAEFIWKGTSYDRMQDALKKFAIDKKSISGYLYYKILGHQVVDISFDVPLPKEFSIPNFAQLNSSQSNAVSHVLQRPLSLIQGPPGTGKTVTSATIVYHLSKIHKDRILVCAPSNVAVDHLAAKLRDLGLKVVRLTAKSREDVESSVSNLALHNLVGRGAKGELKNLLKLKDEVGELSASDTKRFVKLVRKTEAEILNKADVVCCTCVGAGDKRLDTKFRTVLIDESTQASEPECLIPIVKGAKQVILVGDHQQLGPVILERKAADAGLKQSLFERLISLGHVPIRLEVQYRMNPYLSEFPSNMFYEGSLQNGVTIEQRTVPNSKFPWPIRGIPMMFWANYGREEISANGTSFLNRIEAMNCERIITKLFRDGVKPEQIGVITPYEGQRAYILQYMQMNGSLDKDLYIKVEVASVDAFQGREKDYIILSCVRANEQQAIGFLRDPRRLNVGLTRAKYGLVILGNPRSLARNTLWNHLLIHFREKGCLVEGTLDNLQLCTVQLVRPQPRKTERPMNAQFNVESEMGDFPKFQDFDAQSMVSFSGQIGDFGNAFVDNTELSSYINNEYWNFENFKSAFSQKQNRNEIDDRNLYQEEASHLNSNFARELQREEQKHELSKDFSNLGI

Binder	binding (Nmd4-TAP (S. cerevisiae) [1])	binding [2]	binding (Dcp1-TAP (S. cerevisiae) [3])	binding (Ebs1-TAP (S. cerevisiae) [4])	binding (Nmd4-TAP (S. cerevisiae) [5])	binding [6]	binding (Dcp1-TAP (S. cerevisiae) [7])	binding (Ebs1-TAP (S. cerevisiae) [8])	binding [9]
Upf1 (protein, UniProt P30771 1-971) MVGSGSHTPYDISNSPSDVNVQPATQLNSTLVEDDDVDNQLFEEAQVTETGFRSPSASDNSCAYCGIDSAKCVIKCNSCKKWFCNTKNGTSSSHIVNHLVLSHHNVVSLHPDSDLGDTVLECYNCGRKNVFLLGFVSAKSEAVVVLLCRIPCAQTKNANWDTDQWQPLIEDRQLLSWVAEQPTEEEKLKARLITPSQISKLEAKWRSNKDATINDIDAPEEQEAIPPLLLRYQDAYEYQRSYGPLIKLEADYDKQLKESQALEHISVSWSLALNNRHLASFTLSTFESNELKVAIGDEMILWYSGMQHPDWEGRGYIVRLPNSFQDTFTLELKPSKTPPPTHLTTGFTAEFIWKGTSYDRMQDALKKFAIDKKSISGYLYYKILGHQVVDISFDVPLPKEFSIPNFAQLNSSQSNAVSHVLQRPLSLIQGPPGTGKTVTSATIVYHLSKIHKDRILVCAPSNVAVDHLAAKLRDLGLKVVRLTAKSREDVESSVSNLALHNLVGRGAKGELKNLLKLKDEVGELSASDTKRFVKLVRKTEAEILNKADVVCCTCVGAGDKRLDTKFRTVLIDESTQASEPECLIPIVKGAKQVILVGDHQQLGPVILERKAADAGLKQSLFERLISLGHVPIRLEVQYRMNPYLSEFPSNMFYEGSLQNGVTIEQRTVPNSKFPWPIRGIPMMFWANYGREEISANGTSFLNRIEAMNCERIITKLFRDGVKPEQIGVITPYEGQRAYILQYMQMNGSLDKDLYIKVEVASVDAFQGREKDYIILSCVRANEQQAIGFLRDPRRLNVGLTRAKYGLVILGNPRSLARNTLWNHLLIHFREKGCLVEGTLDNLQLCTVQLVRPQPRKTERPMNAQFNVESEMGDFPKFQDFDAQSMVSFSGQIGDFGNAFVDNTELSSYINNEYWNFENFKSAFSQKQNRNEIDDRNLYQEEASHLNSNFARELQREEQKHELSKDFSNLGI	binds	binds	binds	binds	binds	binds	binds	binds	–
eRF3 (yeast Sup35), P05453 1-685 (protein) MSDSNQGNNQQNYQQYSQNGNQQQGNNRYQGYQAYNAQAQPAGGYYQNYQGYSGYQQGGYQQYNPDAGYQQQYNPQGGYQQYNPQGGYQQQFNPQGGRGNYKNFNYNNNLQGYQAGFQPQSQGMSLNDFQKQQKQAAPKPKKTLKLVSSSGIKLANATKKVGTKPAESDKKEEEKSAETKEPTKEPTKVEEPVKKEEKPVQTEEKTEEKSELPKVEDLKISESTHNTNNANVTSADALIKEQEEEVDDEVVNDMFGGKDHVSLIFMGHVDAGKSTMGGNLLYLTGSVDKRTIEKYEREAKDAGRQGWYLSWVMDTNKEERNDGKTIEVGKAYFETEKRRYTILDAPGHKMYVSEMIGGASQADVGVLVISARKGEYETGFERGGQTREHALLAKTQGVNKMVVVVNKMDDPTVNWSKERYDQCVSNVSNFLRAIGYNIKTDVVFMPVSGYSGANLKDHVDPKECPWYTGPTLLEYLDTMNHVDRHINAPFMLPIAAKMKDLGTIVEGKIESGHIKKGQSTLLMPNKTAVEIQNIYNETENEVDMAMCGEQVKLRIKGVEEEDISPGFVLTSPKNPIKSVTKFVAQIAIVELKSIIAAGFSCVMHVHTAIEEVHIVKLLHKLEKGTNRKSKKPPAFAKKGMKVIAVLETEAPVCVETYQDYPQLGRFTLRDQGTTIAIGKIVKIAE	–	–	–	–	–	–	–	–	no binding
